B1: EGFR-3.34 (VHH)
VHH: QVQLQESGGGLVQAGGSLRLSCAASGRTFSSYAIGWFRQAPGKEREFVAAISWGGSNTYYADSVKGRFTISRDNAKNTVYLQMNSLKPEDTAVYYCAAGEVSNSDYAYEYDYWGQGTQVTVSS
B2: EGFR-4.11 (VHH)
VHH: QVKLEESGGGLVQAGDSLRLSCAASGRSFSSITMGWFRQAPGKERQFVSAINSNGNRYYADSVKGRFTISRDNAKNTVYLQMNSLKPEDTAVYYCAAVQAYSSSSDYYSQEGAYDYWGQGTQVTVSS
B3: EGFR-3.18 (VHH)
VHH: EVQLVESGGGLVQPGGSLRLSCVASGFTFADYAMSWVRQAPGKGLQWVSSISYNGDTTYYAESMKDRFTISRDNAKNTLYLQMNSLKSEDTAVYYCASSGSYYPGHFESWGQGTQVTVSS
B4: EGFR-Ia15 (VHH)
VHH: QVQLQDSGGGLVQAGGSLRLSCAASGGTFSSYAMGWFRQAPGKEREFVAAIGLNTYYADSVKGRFTISRDNAKNTVYLQMNSLKPEDTAVYYCAARTSGVVGGTPKRYDYWGQGTQVTVSS
B5: EGFR-4.22 (VHH)
VHH: QVKLEESGGGLVQAGGSLRLSCAASGSIFSINAMGWYRQAPGKQRELVARITGTGTGITGAVSTNYADSVKGRFTISRDNARNTVYLQMNSLKPEDTAVYYCAADRSRTIVVPDYWGQGTQVTVSS
B6: EGFR-4.21 (VHH)
VHH: EVQLVESGGGLVQAGGSLRLSCAVSGRTFSSMGWFRQAPGKEREFVATINLSGDRTDYADSVKGRFTISRDNPKNTVYLQMDSLEPEDSAVYYCAGTSLYPSNLRYYTLPGTYADWGQGTQVTVSS
B7: EGFR-Ia1 (VHH)
VHH: QVQLQESGGGLVQAGGSLLLSCAASGRTFSSYAMGWFRQAPGKEREFVAAINWSGGSTSYADSVKGRFTISRDNTKNTVYLQMNSLKPEDTAAFYCAATYNPYSRDHYFPRMTTEYDYWGQGTQVTVSS
B8: EGFR-Ia7 (VHH)
VHH: QVQLQESGGRLVQTGGSLRLSCAASGGTFGTYALGWFRQAPGKEREFVAAISRFGSTYYADSVKGRFTISRDNANNTVYLEMNSLKPEDTAVYYCAAREGVALGLRNDANYWGQGTQVTVSS
B9: EGFR-3.40 (VHH)
VHH: QVKLEESGGGLVQAGGSLRLSCSASGLTFSNYAMAWFRQAPGKEREFVATISQRGGMRHYLDSVKDRFTISRDNAKNTVYLQMNSLKPDDTAVYYCAADLMYGVDRRYDYWGRGTQVTVSS
B10: EGFR-IIIa5 (VHH)
VHH: EVQLVESGGGLVQAGGSLRLSCTASGRTFSSYAMGWFRQTPGKEREFVAAITSSGGSTYYADSVKGRFTISRDNAKSTMYLQMDSLMLDDTSVYYCAADSSRPQYSDSALRRILSLSNSYPYWGQGTQVTVSS
B11: EGFR-3.32 (VHH)
VHH: QVQLQESGGGLVQAGGSLRLSCAASGRTFSGYAMGWFRQAPGEEREFVAAISWRGTSTYYGDSAKGRFTISRDNAKNTVYLQMNSLKPEDTAVYYCAAGSHSDYAPDYDYWGQGTQVTVSS
B12: EGFR-1.9 (VHH)
VHH: QVQLQESGGGLVKAGGSLRLSCAASGRTFSSYVMGWFRQAPGKEREFVGAIHWSGGRTYYADSVKGRFTISSDNAKNTLYLQMNSLKPEDTAVYYCAASRIIYSYVNYVNPGEYDYWGQGTQVTVSS
B13: EGFR-2.20 (VHH)
VHH: EVQLVESGGGLVQAGGSLRLSCAASGRSFSSYAMAWFRQAPGKEREFVAAISWGGGSTYYAVSVKGRFTISRDNAKNTVYLQMNSLKPEDTARYYCAADETFHSSAYGEYEYWGQGTQVTVSS
B14: EGFR-1.34 (VHH)
VHH: QVQLQESGGGLVQAGGSLRLSCAASGRTFSKYAMGWFRQAPGKEREFVSAISWSDGSTYYADSVKGRFTISRDNAKNTVYLQVNSLKPEDTAVYYCAATYLVDVWAVHVPIRPYEYDYWGQGTQVTVSS
B15: EGFR-1.4 (VHH)
VHH: EVQLVESGGGLVQAGGSLRLSCAASGRTFSNYVMGWFRQAPGKERDFVVGIGRSGGDNTYYADSVKGRFTISWDNAKNTMYLQMNSLKPEDTAVYYCAASTYSRDTIFTKWANYNYWGQGTQVTVSS
B16: EGFR-1.38 (VHH)
VHH: QVQLQDSGGGLVQAGDSLRLSCAASGRSFGGYAMGWFRQAPGKEREFVAAISWSGGSTYYADSLKGRFTISRDNAKNTVYLQMNSLKPEDTALYYCAAGLRPSPNYNHERSYDYWGQGTQVTVSS
B17: EGFR-Ia26 (VHH)
VHH: QVQLQESGGGSVQAGGSLKLSCAASGRGFSRYAMGWFRQAPGQDREFVATISWTNSTDYADSVKGRFAISRDNAKNTAYLQMNSLKPEDTAVYYCAADKWASSTRSIDYDYWGQGIQVTVSS
B18: EGFR-1.33 (VHH)
VHH: EVQLVESGGGLVQPGGSLRLSCAASGFTFSSHYMSWFRQAPGKEREFVAAITSSSRTYYTESVKGRFTISRDNAKNTVYLQMNSLKSEDTAVYYCAADRTFYGSTWSKYDYRGQGTQVTVSS
B19: EGFR-2.6 (VHH)
VHH: QVQLQESGGGLVQAGGSLRLSCAASGRTFSNYAMGWFRQAPGKEREFVAAINWGGGNTYYADSVKGRFTISRDNAKNTVYLQMNSLKPEDTAVYYCAASEWGGSDYDHDYDYWGQGTQVTVSS
B20: EGFR-3.39 (VHH)
VHH: QVQLQESGGGLVQTGGSLRLSCAASGRYIMGWFRQAPGKEREFVAGISRSGASTAYADSVKDRFTISRDSALNTVYLQMNSLKAEDTAVYFCAAALAIRLGIPRGETEYEYWGQGTQVTVSS

These are yes or no findings as the source states them, for the method shown. Binding calls can cover weak binding; strength is not graded here.

The test concerns the target epidermal growth factor receptor (EGFR) (human) (UniProt P00533). The test is described as follows: phage ELISA on Her-14 cells (vs 3T3) and/or solid-phase coated EGFR (vs non-coated well). (In general: An ELISA detects its analyte on a solid surface through an enzyme-linked reagent.)
Take B1: the binding entry is listed as “binds”.

B2: the binding entry is on record as “binds”.

Take B3: the binding entry is listed as “binds”.

For the molecule B4, the binding entry is “binds”.

Turning to B5, the binding result is “binds”.

On to B6, for which the binding result is reported as “binds”.

Regarding B7, the binding entry was “binds”.

As for B8, the binding result is reported as “binds”.

In the case of B9, the binding result was “binds”.

As to B10, the binding entry is “binds”.

As for B11, the binding result was “binds”.

B12: the binding entry was “binds”.

For the molecule B13, the binding entry was “binds”.

With B14, the binding result is recorded as “binds”.

Take B15: the binding entry is “binds”.

For B16, the binding result is listed as “binds”.

For B17, the binding entry is on record as “binds”.

With B18, the binding result is recorded as “binds”.

As for B19, the binding result is on record as “binds”.

For B20, the binding result was “binds”.

Source of the values: patent US20110123529A1.
